Values from PubChem BioAssay AID1159618 (Peter MacCallum Cancer Centre, 2016)
Here is an unselected part of 153 deposited reagents. Of all reagents, 111 (73%) are marked active. 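Migration not corrected for cell number; some knock-downs also lowered nuclei counts, so reduced closure may partly reflect fewer cells.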 Not all columns of the deposit are shown. Not given: the time to read-out.

Assay: 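Retest earlier hits for effects on endothelial scratch closure in two cell types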 (follow-up of hits)
Cells: human HMBEC blood microvascular and HDLEC dermal lymphatic endothelial cells
Knock-down reagent: siRNA pool against human genes, 40 nM
Detection: 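Scratch wounds imaged automatically; migrated area scaled to mock-transfected mean and averaged across two replicates, with per-well nuclei counts recorded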
Direction: migration vs mock, HMBEC and migration vs mock, HDLEC: higher = more migration into the scratch
Rule for the call: 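a knock-down counts as active if migrated area in either cell type is under 0.65 of the mock level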
Calls: active = migration impaired; inactive = no change

CLCN7 [SID313053765] — cell type with impaired migration: impaired in both blood and lymphatic cells; migration vs mock, HMBEC: 0.195; migration vs mock, HDLEC: 0.358; Outcome: active
CRCT1 [SID313053852] — cell type with impaired migration: impaired only in blood endothelial cells; migration vs mock, HMBEC: 0.636; migration vs mock, HDLEC: 0.734; Outcome: active
HOXC5 [SID313053779] — cell type with impaired migration: impaired in both blood and lymphatic cells; migration vs mock, HMBEC: 0.319; migration vs mock, HDLEC: -0.164; Outcome: active
UGT1A7 [SID313053853] — cell type with impaired migration: impaired in both blood and lymphatic cells; migration vs mock, HMBEC: 0.25; migration vs mock, HDLEC: 0.137; Outcome: active
SDCCAG8 [SID313053829] — cell type with impaired migration: no change in either cell type; migration vs mock, HMBEC: 0.763; migration vs mock, HDLEC: 0.71; Outcome: inactive
ELP2 [SID313053856] — cell type with impaired migration: no change in either cell type; migration vs mock, HMBEC: 0.717; migration vs mock, HDLEC: 0.814; Outcome: inactive
